Measurements as given in the supplement of paper PMC8728848.
This is one part of the list.

Legend:
Assay in all cases: glycan array binding signal (z-score within array); higher = stronger binding
Conditions in all cases: glycan notation: IUPAC condensed, linker removed
[1] = target: Neu5Ac(a2-3)Gal
Outline: (§1)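 The Consortium for Functional Glycomics database supplied 3228 glycan arrays, of which those lacking an available protein sequence were dropped. The binding signal, a within-array Z-score, was averaged across arrays of the same protein sequence and across linkers. Negative scores can be read as non-binding.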

[2] = target: Neu5Ac(a2-3)Gal(b1-3)GalNAc
Outline: as §1

[3] = target: Neu5Ac(a2-3)Gal(b1-3)GalNAc(b1-3)Gal(a1-4)Gal(b1-4)Glc
Outline: as §1

[4] = target: Neu5Ac(a2-3)Gal(b1-3)GalNAc(b1-4)[Neu5Ac(a2-3)]Gal(b1-4)Glc
Outline: as §1

[5] = target: Neu5Ac(a2-3)Gal(b1-3)GalNAc(b1-4)[Neu5Ac(a2-8)Neu5Ac(a2-3)]Gal(b1-4)Glc
Outline: as §1

[6] = target: Neu5Ac(a2-3)Gal(b1-3)GalNAc6S
Outline: as §1

[7] = target: Neu5Ac(a2-3)Gal(b1-3)GlcNAc
Outline: as §1

[8] = target: Neu5Ac(a2-3)Gal(b1-3)GlcNAc(b1-2)Man
Outline: as §1

[9] = target: Neu5Ac(a2-3)Gal(b1-3)GlcNAc(b1-2)Man(a1-3)[GlcNAc(b1-4)][Neu5Ac(a2-3)Gal(b1-3)GlcNAc(b1-2)Man(a1-6)]Man(b1-4)GlcNAc(b1-4)GlcNAc
Outline: as §1

[10] = target: Neu5Ac(a2-3)Gal(b1-3)GlcNAc(b1-2)Man(a1-3)[Neu5Ac(a2-3)Gal(b1-3)GlcNAc(b1-2)Man(a1-6)]Man(b1-4)GlcNAc(b1-4)GlcNAc
Outline: as §1

[11] = target: Neu5Ac(a2-3)Gal(b1-3)GlcNAc(b1-3)Gal(b1-3)GlcNAc
Outline: as §1

[12] = target: Neu5Ac(a2-3)Gal(b1-3)GlcNAc(b1-3)Gal(b1-4)GlcNAc
Outline: as §1

[13] = target: Neu5Ac(a2-3)Gal(b1-3)GlcNAc(b1-3)GalNAc
Outline: as §1

[14] = target: Neu5Ac(a2-3)Gal(b1-3)GlcNAc(b1-4)Gal(b1-4)Glc
Outline: as §1

[15] = target: Neu5Ac(a2-3)Gal(b1-3)GlcNAc(b1-6)GalNAc
Outline: as §1

[16] = target: Neu5Ac(a2-3)Gal(b1-3)GlcNAc6S
Outline: as §1

[17] = target: Neu5Ac(a2-3)Gal(b1-3)[Fuc(a1-4)]GlcNAc
Outline: as §1

[18] = target: Neu5Ac(a2-3)Gal(b1-3)[Fuc(a1-4)]GlcNAc(b1-3)Gal(b1-3)[Fuc(a1-4)]GlcNAc
Outline: as §1

[19] = target: Neu5Ac(a2-3)Gal(b1-3)[Fuc(a1-4)]GlcNAc(b1-3)Gal(b1-4)[Fuc(a1-3)]GlcNAc
Outline: as §1

[20] = target: Neu5Ac(a2-3)Gal(b1-3)[GlcNAc(b1-6)]GalNAc
Outline: as §1

[21] = target: Neu5Ac(a2-3)Gal(b1-3)[Neu5Ac(a2-6)]GalNAc
Outline: as §1

[22] = target: Neu5Ac(a2-3)Gal(b1-3)[Neu5Ac(a2-6)]GlcNAc(b1-3)[Fuc(a1-3)[Gal(b1-4)]GlcNAc(b1-6)]Gal(b1-4)Glc
Outline: as §1

[23] = target: Neu5Ac(a2-3)Gal(b1-3)]Neu5Ac(a2-3)Gal(b1-4)]GlcNAc
Outline: as §1

[24] = target: Neu5Ac(a2-3)Gal(b1-4)Glc
Outline: as §1

[25] = target: Neu5Ac(a2-3)Gal(b1-4)GlcNAc
Outline: as §1

[26] = target: Neu5Ac(a2-3)Gal(b1-4)GlcNAc(b1-2)Man
Outline: as §1

[27] = target: Neu5Ac(a2-3)Gal(b1-4)GlcNAc(b1-2)Man(a1-3)[GlcNAc(b1-4)][Neu5Ac(a2-3)Gal(b1-4)GlcNAc(b1-2)Man(a1-6)]Man(b1-4)GlcNAc(b1-4)GlcNAc
Outline: as §1

[28] = target: Neu5Ac(a2-3)Gal(b1-4)GlcNAc(b1-2)Man(a1-3)[Neu5Ac(a2-3)Gal(b1-4)GlcNAc(b1-2)Man(a1-6)]Man(b1-4)GlcNAc(b1-4)GlcNAc
Outline: as §1

[29] = target: Neu5Ac(a2-3)Gal(b1-4)GlcNAc(b1-2)Man(a1-3)[Neu5Ac(a2-3)Gal(b1-4)GlcNAc(b1-2)Man(a1-6)]Man(b1-4)GlcNAc(b1-4)[Fuc(a1-6)]GlcNAc
Outline: as §1

[30] = target: Neu5Ac(a2-3)Gal(b1-4)GlcNAc(b1-2)Man(a1-3)[Neu5Ac(a2-6)Gal(b1-4)GlcNAc(b1-2)Man(a1-6)]Man(b1-4)GlcNAc(b1-4)GlcNAc
Outline: as §1

[31] = target: Neu5Ac(a2-3)Gal(b1-4)GlcNAc(b1-2)[Neu5Ac(a2-3)Gal(b1-4)GlcNAc(b1-4)]Man(a1-3)[GlcNAc(b1-4)][Neu5Ac(a2-3)Gal(b1-4)GlcNAc(b1-2)[Neu5Ac(a2-3)Gal(b1-4)GlcNAc(b1-6)]Man(a1-6)]Man(b1-4)GlcNAc(b1-4)GlcNAc
Outline: as §1

[32] = target: Neu5Ac(a2-3)Gal(b1-4)GlcNAc(b1-2)[Neu5Ac(a2-3)Gal(b1-4)GlcNAc(b1-4)]Man(a1-3)[GlcNAc(b1-4)][Neu5Ac(a2-3)Gal(b1-4)GlcNAc(b1-4)Man(a1-6)]Man(b1-4)GlcNAc(b1-4)GlcNAc
Outline: as §1

[33] = target: Neu5Ac(a2-3)Gal(b1-4)GlcNAc(b1-2)[Neu5Ac(a2-3)Gal(b1-4)GlcNAc(b1-6)]Man(a1-6)[Neu5Ac(a2-3)Gal(b1-4)GlcNAc(b1-2)Man(a1-3)]Man(b1-4)GlcNAc(b1-4)GlcNAc
Outline: as §1

[34] = target: Neu5Ac(a2-3)Gal(b1-4)GlcNAc(b1-2)[Neu5Ac(a2-3)Gal(b1-4)GlcNAc(b1-6)]Man(a1-6)[Neu5Ac(a2-3)Gal(b1-4)GlcNAc(b1-2)Man(a1-3)][GlcNAc(b1-4)]Man(b1-4)GlcNAc(b1-4)GlcNAc
Outline: as §1

[35] = target: Neu5Ac(a2-3)Gal(b1-4)GlcNAc(b1-3)Gal
Outline: as §1

[36] = target: Neu5Ac(a2-3)Gal(b1-4)GlcNAc(b1-3)Gal(b1-3)GlcNAc
Outline: as §1

[37] = target: Neu5Ac(a2-3)Gal(b1-4)GlcNAc(b1-3)Gal(b1-4)GlcNAc
Outline: as §1

B1: AT3G44510(29) (Arabidopsis thaliana), F4J341 (protein)
chain: MEEHLQGRIKLHDGRYLAYKERGVPKDDAKFTIVLVHGFGSSKDMNFNVSQELVNEIGIYFVLYDRAGYGESDPNPKRSLKSEAYDVQELADGLEIGSRFYLIGISMGSYTVWSCLKHIPQRLAGVAMVAPVVNFRWPSIPKSLMPKDYRREVAKWSVWIANYFPGLLQWLVTQNMFSTTSMLEKNPVYFNDQDIEVLKHIKGFPMLTKEKLRERGVFGTLRSDFLVAFGDWDFDPADLPDPSLSGPEKGSSSVHIWQGYEDKVMPFQLQRCLCRKLPWIRYHEVPKGGHLIVHYDGICDAILKSLLLGEDLPMYKPKAVITEPA
glycan array binding signal (z-score) [1]: 0.208 | glycan array binding signal (z-score) [2]: 0.122 | glycan array binding signal (z-score) [3]: -0.646 | glycan array binding signal (z-score) [4]: -0.09 | glycan array binding signal (z-score) [5]: -0.512 | glycan array binding signal (z-score) [6]: -0.737 | glycan array binding signal (z-score) [7]: 0.49 | glycan array binding signal (z-score) [8]: 0.825 | glycan array binding signal (z-score) [9]: -0.861 | glycan array binding signal (z-score) [10]: 0.213 | glycan array binding signal (z-score) [11]: -0.556 | glycan array binding signal (z-score) [12]: -0.064 | glycan array binding signal (z-score) [13]: -0.522 | glycan array binding signal (z-score) [14]: -0.405 | glycan array binding signal (z-score) [15]: 0.556 | glycan array binding signal (z-score) [16]: -0.564 | glycan array binding signal (z-score) [17]: -0.723 | glycan array binding signal (z-score) [18]: -0.151 | glycan array binding signal (z-score) [19]: 0.013 | glycan array binding signal (z-score) [20]: -0.473 | glycan array binding signal (z-score) [21]: 0.259 | glycan array binding signal (z-score) [22]: -0.517 | glycan array binding signal (z-score) [23]: 0.053 | glycan array binding signal (z-score) [24]: 0.086 | glycan array binding signal (z-score) [25]: 0.193 | glycan array binding signal (z-score) [26]: -0.952 | glycan array binding signal (z-score) [27]: 0.286 | glycan array binding signal (z-score) [28]: -0.22 | glycan array binding signal (z-score) [29]: -0.183 | glycan array binding signal (z-score) [30]: 2.04 | glycan array binding signal (z-score) [31]: -0.124 | glycan array binding signal (z-score) [32]: -0.202 | glycan array binding signal (z-score) [33]: 0.09 | glycan array binding signal (z-score) [34]: -0.209 | glycan array binding signal (z-score) [35]: 0.688 | glycan array binding signal (z-score) [36]: 0.06 | glycan array binding signal (z-score) [37]: 0.145
